According to the supplement of paper PMC8728848:
This is one part of the list.

Tests used:
Assay in all cases: glycan array binding signal (z-score within array); higher = stronger binding
Conditions in all cases: glycan notation: IUPAC condensed, linker removed
[1] = biological target: Fuc(a1-2)[Gal(a1-3)]Gal(b1-4)GlcNAc(b1-2)Man(a1-3)[Fuc(a1-2)[Gal(a1-3)]Gal(b1-4)GlcNAc(b1-2)Man(a1-6)]Man(b1-4)GlcNAc(b1-4)GlcNAc
Method in brief: (§1)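 The binding signal is a Z-score computed within each array and averaged over linkers. Arrays of the same protein sequence at different concentrations or buffers were also averaged together. Data originate from 3228 arrays in the Consortium for Functional Glycomics database, kept only where the protein sequence was available.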

[2] = biological target: Fuc(a1-2)[Gal(a1-3)]Gal(b1-4)GlcNAc(b1-2)Man(a1-3)[Fuc(a1-2)[Gal(a1-3)]Gal(b1-4)GlcNAc(b1-2)Man(a1-6)]Man(b1-4)GlcNAc(b1-4)[Fuc(a1-6)]GlcNAc
Method in brief: as §1

[3] = biological target: Fuc(a1-2)[Gal(a1-3)]Gal(b1-4)GlcNAc(b1-3)GalNAc
Method in brief: as §1

[4] = biological target: Fuc(a1-2)[Gal(a1-3)]Gal(b1-4)GlcNAc(b1-3)[Fuc(a1-2)[Gal(a1-3)]Gal(b1-4)GlcNAc(b1-6)]GalNAc
Method in brief: as §1

[5] = biological target: Fuc(a1-2)[Gal(a1-3)]Gal(b1-4)GlcNAc(b1-6)GalNAc
Method in brief: as §1

[6] = biological target: Fuc(a1-2)[Gal(a1-3)]Gal(b1-4)[Fuc(a1-3)]Glc
Method in brief: as §1

[7] = biological target: Fuc(a1-2)[Gal(a1-3)]Gal(b1-4)[Fuc(a1-3)]GlcNAc
Method in brief: as §1

[8] = biological target: Fuc(a1-2)[Gal(a1-3)]Gal(b1-4)[Fuc(a1-3)]GlcNAc(b1-3)GalNAc
Method in brief: as §1

[9] = biological target: Fuc(a1-2)[Gal(a1-4)]Gal(b1-4)GlcNAc
Method in brief: as §1

[10] = biological target: Fuc(a1-2)[GalNAc(a1-3)]Gal
Method in brief: as §1

[11] = biological target: Fuc(a1-2)[GalNAc(a1-3)]Gal(b1-3)GalNAc(a1-3)[Fuc(a1-2)]Gal(b1-4)GlcNAc
Method in brief: as §1

[12] = biological target: Fuc(a1-2)[GalNAc(a1-3)]Gal(b1-3)GalNAc(b1-3)Gal(a1-4)Gal(b1-4)Glc
Method in brief: as §1

[13] = biological target: Fuc(a1-2)[GalNAc(a1-3)]Gal(b1-3)GlcNAc
Method in brief: as §1

[14] = biological target: Fuc(a1-2)[GalNAc(a1-3)]Gal(b1-3)GlcNAc(b1-2)Man(a1-3)[Fuc(a1-2)[GalNAc(a1-3)]Gal(b1-3)GlcNAc(b1-2)Man(a1-6)]Man(b1-4)GlcNAc(b1-4)GlcNAc
Method in brief: as §1

[15] = biological target: Fuc(a1-2)[GalNAc(a1-3)]Gal(b1-3)GlcNAc(b1-2)Man(a1-3)[Fuc(a1-2)[GalNAc(a1-3)]Gal(b1-3)GlcNAc(b1-2)Man(a1-6)]Man(b1-4)GlcNAc(b1-4)[Fuc(a1-6)]GlcNAc
Method in brief: as §1

[16] = biological target: Fuc(a1-2)[GalNAc(a1-3)]Gal(b1-3)GlcNAc(b1-3)GalNAc
Method in brief: as §1

[17] = biological target: Fuc(a1-2)[GalNAc(a1-3)]Gal(b1-3)GlcNAc(b1-6)GalNAc
Method in brief: as §1

[18] = biological target: Fuc(a1-2)[GalNAc(a1-3)]Gal(b1-4)Glc
Method in brief: as §1

[19] = biological target: Fuc(a1-2)[GalNAc(a1-3)]Gal(b1-4)GlcNAc
Method in brief: as §1

[20] = biological target: Fuc(a1-2)[GalNAc(a1-3)]Gal(b1-4)GlcNAc(b1-2)Man
Method in brief: as §1

[21] = biological target: Fuc(a1-2)[GalNAc(a1-3)]Gal(b1-4)GlcNAc(b1-2)Man(a1-3)[Fuc(a1-2)[GalNAc(a1-3)]Gal(b1-4)GlcNAc(b1-2)Man(a1-6)]Man(b1-4)GlcNAc(b1-4)GlcNAc
Method in brief: as §1

[22] = biological target: Fuc(a1-2)[GalNAc(a1-3)]Gal(b1-4)GlcNAc(b1-2)Man(a1-3)[Fuc(a1-2)[GalNAc(a1-3)]Gal(b1-4)GlcNAc(b1-2)Man(a1-6)]Man(b1-4)GlcNAc(b1-4)[Fuc(a1-6)]GlcNAc
Method in brief: as §1

[23] = biological target: Fuc(a1-2)[GalNAc(a1-3)]Gal(b1-4)GlcNAc(b1-3)Gal(b1-4)GlcNAc
Method in brief: as §1

[24] = biological target: Fuc(a1-2)[GalNAc(a1-3)]Gal(b1-4)GlcNAc(b1-3)Gal(b1-4)GlcNAc(b1-3)Gal(b1-4)GlcNAc
Method in brief: as §1

[25] = biological target: Fuc(a1-2)[GalNAc(a1-3)]Gal(b1-4)GlcNAc(b1-3)GalNAc
Method in brief: as §1

[26] = biological target: Fuc(a1-2)[GalNAc(a1-3)]Gal(b1-4)GlcNAc(b1-3)[Fuc(a1-2)[GalNAc(a1-3)]Gal(b1-4)GlcNAc(b1-6)]GalNAc
Method in brief: as §1

[27] = biological target: Fuc(a1-2)[GalNAc(a1-3)]Gal(b1-4)GlcNAc(b1-6)GalNAc
Method in brief: as §1

[28] = biological target: Fuc(a1-2)[GalNAc(a1-3)]Gal(b1-4)[Fuc(a1-3)]GlcNAc
Method in brief: as §1

[29] = biological target: Fuc(a1-2)[GalNAc(a1-3)]Gal(b1-4)[Fuc(a1-3)]GlcNAc(b1-3)GalNAc
Method in brief: as §1

[30] = biological target: Fuc(a1-2)[GalNAc(a1-4)]Gal(b1-4)GlcNAc
Method in brief: as §1

[31] = biological target: Fuc(a1-2)[GalNAc(b1-3)]Gal
Method in brief: as §1

Fuc(a1-3)GlcNAc = biological target: Fuc(a1-3)GlcNAc
Method in brief: as §1

[32] = biological target: Fuc(a1-3)[Gal(b1-4)]Glc6S
Method in brief: as §1

[33] = biological target: Fuc(a1-3)[Gal(b1-4)]GlcNAc
Method in brief: as §1

[34] = biological target: Fuc(a1-3)[Gal(b1-4)]GlcNAc(b1-2)Man
Method in brief: as §1

[35] = biological target: Fuc(a1-3)[Gal(b1-4)]GlcNAc(b1-2)Man(a1-3)[Fuc(a1-3)[Gal(b1-4)]GlcNAc(b1-2)Man(a1-6)]Man(b1-4)GlcNAc(b1-4)GlcNAc
Method in brief: as §1

[36] = biological target: Fuc(a1-3)[Gal(b1-4)]GlcNAc(b1-2)Man(a1-3)[Fuc(a1-3)[Gal(b1-4)]GlcNAc(b1-2)Man(a1-6)]Man(b1-4)GlcNAc(b1-4)[Fuc(a1-6)]GlcNAc
Method in brief: as §1

[37] = biological target: Fuc(a1-3)[Gal(b1-4)]GlcNAc(b1-3)Gal(b1-3)[Fuc(a1-4)]GlcNAc
Method in brief: as §1

[38] = biological target: Fuc(a1-3)[Gal(b1-4)]GlcNAc(b1-3)Gal(b1-4)[Fuc(a1-3)]GlcNAc
Method in brief: as §1

[39] = biological target: Fuc(a1-3)[Gal(b1-4)]GlcNAc(b1-3)Gal(b1-4)[Fuc(a1-3)]GlcNAc(b1-3)Gal(b1-4)[Fuc(a1-3)]GlcNAc
Method in brief: as §1

[40] = biological target: Fuc(a1-3)[Gal(b1-4)]GlcNAc(b1-3)GalNAc
Method in brief: as §1

[41] = biological target: Fuc(a1-3)[Gal(b1-4)]GlcNAc(b1-6)GalNAc
Method in brief: as §1

[42] = biological target: Fuc(a1-3)[Gal(b1-4)]GlcNAc(b1-6)[Gal(b1-3)GlcNAc(b1-3)]Gal(b1-4)Glc
Method in brief: as §1

[43] = biological target: Fuc(a1-3)[Gal(b1-4)]GlcNAc6S
Method in brief: as §1

[44] = biological target: Fuc(a1-3)[Gal3S(b1-4)]Glc
Method in brief: as §1

B1: AT5G17240(42) (Arabidopsis thaliana), Q6NQJ8 (protein)
chain: MDLEHQTMETFLRWAAEIGISDSIDSSRFRDSCLGHSLSVSDFPDAGGRGLGAARELKKGELVLKVPRKALMTTESIIAKDLKLSDAVNLHNSLSSTQILSVCLLYEMSKEKKSFWYPYLFHIPRDYDLLATFGNFEKQALQVEDAVWATEKATAKCQSEWKEAGSLMKELELKPKFRSFQAWLWASATISSRTLHVPWDSAGCLCPVGDLFNYDAPGDYSNTPQGPESANNVEEAGLVVETHSERLTDGGFEEDVNAYCLYARRNYQLGEQVLLCYGTYTNLELLEHYGFMLEENSNDKVFIPLETSLFSLASSWPKDSLYIHQDGKLSFALISTLRLWLIPQSQRDKSVMRLVYAGSQISVKNEILVMKWMSEKCGSVLRDLPTSVTEDTVLLHNIDKLQDPELRLEQKETEAFGSEVRAFLDANCLWDVTVLSGKPIEFSRKTSRMLSKWRWSVQWRLSYKRTLADCISYCNEKMNNLLGTQDRLRDL
glycan array binding signal (z-score) [1]: 0.142 | glycan array binding signal (z-score) [2]: -0.331 | glycan array binding signal (z-score) [3]: -0.626 | glycan array binding signal (z-score) [4]: -0.324 | glycan array binding signal (z-score) [5]: -0.375 | glycan array binding signal (z-score) [6]: 0.583 | glycan array binding signal (z-score) [7]: 0.5 | glycan array binding signal (z-score) [8]: -0.253 | glycan array binding signal (z-score) [9]: 0.208 | glycan array binding signal (z-score) [10]: -0.222 | glycan array binding signal (z-score) [11]: -0.276 | glycan array binding signal (z-score) [12]: -0.358 | glycan array binding signal (z-score) [13]: -0.505 | glycan array binding signal (z-score) [14]: -0.714 | glycan array binding signal (z-score) [15]: -0.488 | glycan array binding signal (z-score) [16]: -0.641 | glycan array binding signal (z-score) [17]: -0.54 | glycan array binding signal (z-score) [18]: -0.719 | glycan array binding signal (z-score) [19]: -0.514 | glycan array binding signal (z-score) [20]: -0.32 | glycan array binding signal (z-score) [21]: 0.114 | glycan array binding signal (z-score) [22]: -1.09 | glycan array binding signal (z-score) [23]: 0.002 | glycan array binding signal (z-score) [24]: 0.02 | glycan array binding signal (z-score) [25]: -0.332 | glycan array binding signal (z-score) [26]: 0.084 | glycan array binding signal (z-score) [27]: -0.213 | glycan array binding signal (z-score) [28]: 0.482 | glycan array binding signal (z-score) [29]: 6.64 | glycan array binding signal (z-score) [30]: -0.684 | glycan array binding signal (z-score) [31]: 0.807 | glycan array binding signal (z-score) (Fuc(a1-3)GlcNAc): -0.341 | glycan array binding signal (z-score) [32]: -0.406 | glycan array binding signal (z-score) [33]: -0.312 | glycan array binding signal (z-score) [34]: -0.27 | glycan array binding signal (z-score) [35]: -0.087 | glycan array binding signal (z-score) [36]: 0.044 | glycan array binding signal (z-score) [37]: 0.623 | glycan array binding signal (z-score) [38]: 0.117 | glycan array binding signal (z-score) [39]: 0.478 | glycan array binding signal (z-score) [40]: -0.031 | glycan array binding signal (z-score) [41]: -0.064 | glycan array binding signal (z-score) [42]: -0.405 | glycan array binding signal (z-score) [43]: 0.225 | glycan array binding signal (z-score) [44]: -0.147
